No constants are given. Whether binding was seen depends on the method and setting. For part of these data: Binding seen in cells or lysates may run through a third protein. Some entries that bind do so weakly or less than the wild type.
Legend:
[1] = biological target: HA-BMAL1 (brain and muscle arnt-like 1) (human) (UniProt O00327); experiment: co-IP; HEK 293T cells transfected with tagged proteins; immunoprecipitation by one tag, Western blot by the other; for CBP and p65 also with overexpressed HA-BMAL1
[2] = biological target: pBIND-p65 (human) (UniProt Q04206); experiment: two-hybrid; CheckMate mammalian two-hybrid system (Promega); pACT-BMAL1 and pBIND-p65 with the pG5-luc reporter in COS-7 cells; luciferase after 24 h
[3] = biological target: endogenous BMAL1 (human (endogenous in ZR-75-30)) (UniProt O00327); experiment: co-IP; endogenous proteins of ZR-75-30 cells; immunoprecipitation with anti-BMAL1 antibody, Western blot with anti-p65; IgG as negative control
[4] = biological target: Myc-CBP (CREB binding protein) (UniProt Q92793); experiment: co-IP; HEK 293T cells transfected with tagged proteins; immunoprecipitation by one tag, Western blot by the other; for CBP and p65 also with overexpressed HA-BMAL1
[5] = biological target: FLAG-p65 (NF-κB p65) (human) (UniProt Q04206); experiment: as above

Sequences of proteins named here, by UniProt entry; tags and fusion partners are left off. Residues count along the entry.
UniProt O00327: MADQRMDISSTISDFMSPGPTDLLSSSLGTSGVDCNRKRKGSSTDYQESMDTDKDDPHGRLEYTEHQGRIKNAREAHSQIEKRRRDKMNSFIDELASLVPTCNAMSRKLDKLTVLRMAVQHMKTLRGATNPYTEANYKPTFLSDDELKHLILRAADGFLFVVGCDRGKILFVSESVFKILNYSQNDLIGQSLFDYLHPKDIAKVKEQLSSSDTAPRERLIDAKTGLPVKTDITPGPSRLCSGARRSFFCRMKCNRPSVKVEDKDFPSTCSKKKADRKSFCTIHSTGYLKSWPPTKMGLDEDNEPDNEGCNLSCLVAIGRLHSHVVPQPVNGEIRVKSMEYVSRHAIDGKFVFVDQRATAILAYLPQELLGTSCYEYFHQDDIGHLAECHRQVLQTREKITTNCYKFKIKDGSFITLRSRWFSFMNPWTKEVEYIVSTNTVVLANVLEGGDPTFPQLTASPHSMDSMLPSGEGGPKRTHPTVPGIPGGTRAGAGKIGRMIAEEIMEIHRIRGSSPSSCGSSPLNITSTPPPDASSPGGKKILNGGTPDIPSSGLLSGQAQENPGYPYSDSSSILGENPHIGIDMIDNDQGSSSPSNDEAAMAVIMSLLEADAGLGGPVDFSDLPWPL
UniProt Q04206: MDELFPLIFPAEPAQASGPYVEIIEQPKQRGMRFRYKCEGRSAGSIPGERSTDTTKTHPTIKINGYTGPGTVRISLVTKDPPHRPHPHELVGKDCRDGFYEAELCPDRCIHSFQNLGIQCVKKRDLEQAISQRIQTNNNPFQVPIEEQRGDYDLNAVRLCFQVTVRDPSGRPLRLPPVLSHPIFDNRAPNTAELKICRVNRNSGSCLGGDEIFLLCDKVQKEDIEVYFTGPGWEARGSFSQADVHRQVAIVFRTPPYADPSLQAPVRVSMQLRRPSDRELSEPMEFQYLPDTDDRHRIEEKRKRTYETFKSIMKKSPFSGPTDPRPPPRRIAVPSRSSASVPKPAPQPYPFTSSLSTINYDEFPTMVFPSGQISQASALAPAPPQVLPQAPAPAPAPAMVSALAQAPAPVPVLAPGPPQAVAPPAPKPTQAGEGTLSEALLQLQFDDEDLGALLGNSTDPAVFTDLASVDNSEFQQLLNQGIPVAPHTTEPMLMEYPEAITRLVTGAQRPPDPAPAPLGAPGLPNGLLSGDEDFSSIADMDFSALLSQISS
UniProt Q92793: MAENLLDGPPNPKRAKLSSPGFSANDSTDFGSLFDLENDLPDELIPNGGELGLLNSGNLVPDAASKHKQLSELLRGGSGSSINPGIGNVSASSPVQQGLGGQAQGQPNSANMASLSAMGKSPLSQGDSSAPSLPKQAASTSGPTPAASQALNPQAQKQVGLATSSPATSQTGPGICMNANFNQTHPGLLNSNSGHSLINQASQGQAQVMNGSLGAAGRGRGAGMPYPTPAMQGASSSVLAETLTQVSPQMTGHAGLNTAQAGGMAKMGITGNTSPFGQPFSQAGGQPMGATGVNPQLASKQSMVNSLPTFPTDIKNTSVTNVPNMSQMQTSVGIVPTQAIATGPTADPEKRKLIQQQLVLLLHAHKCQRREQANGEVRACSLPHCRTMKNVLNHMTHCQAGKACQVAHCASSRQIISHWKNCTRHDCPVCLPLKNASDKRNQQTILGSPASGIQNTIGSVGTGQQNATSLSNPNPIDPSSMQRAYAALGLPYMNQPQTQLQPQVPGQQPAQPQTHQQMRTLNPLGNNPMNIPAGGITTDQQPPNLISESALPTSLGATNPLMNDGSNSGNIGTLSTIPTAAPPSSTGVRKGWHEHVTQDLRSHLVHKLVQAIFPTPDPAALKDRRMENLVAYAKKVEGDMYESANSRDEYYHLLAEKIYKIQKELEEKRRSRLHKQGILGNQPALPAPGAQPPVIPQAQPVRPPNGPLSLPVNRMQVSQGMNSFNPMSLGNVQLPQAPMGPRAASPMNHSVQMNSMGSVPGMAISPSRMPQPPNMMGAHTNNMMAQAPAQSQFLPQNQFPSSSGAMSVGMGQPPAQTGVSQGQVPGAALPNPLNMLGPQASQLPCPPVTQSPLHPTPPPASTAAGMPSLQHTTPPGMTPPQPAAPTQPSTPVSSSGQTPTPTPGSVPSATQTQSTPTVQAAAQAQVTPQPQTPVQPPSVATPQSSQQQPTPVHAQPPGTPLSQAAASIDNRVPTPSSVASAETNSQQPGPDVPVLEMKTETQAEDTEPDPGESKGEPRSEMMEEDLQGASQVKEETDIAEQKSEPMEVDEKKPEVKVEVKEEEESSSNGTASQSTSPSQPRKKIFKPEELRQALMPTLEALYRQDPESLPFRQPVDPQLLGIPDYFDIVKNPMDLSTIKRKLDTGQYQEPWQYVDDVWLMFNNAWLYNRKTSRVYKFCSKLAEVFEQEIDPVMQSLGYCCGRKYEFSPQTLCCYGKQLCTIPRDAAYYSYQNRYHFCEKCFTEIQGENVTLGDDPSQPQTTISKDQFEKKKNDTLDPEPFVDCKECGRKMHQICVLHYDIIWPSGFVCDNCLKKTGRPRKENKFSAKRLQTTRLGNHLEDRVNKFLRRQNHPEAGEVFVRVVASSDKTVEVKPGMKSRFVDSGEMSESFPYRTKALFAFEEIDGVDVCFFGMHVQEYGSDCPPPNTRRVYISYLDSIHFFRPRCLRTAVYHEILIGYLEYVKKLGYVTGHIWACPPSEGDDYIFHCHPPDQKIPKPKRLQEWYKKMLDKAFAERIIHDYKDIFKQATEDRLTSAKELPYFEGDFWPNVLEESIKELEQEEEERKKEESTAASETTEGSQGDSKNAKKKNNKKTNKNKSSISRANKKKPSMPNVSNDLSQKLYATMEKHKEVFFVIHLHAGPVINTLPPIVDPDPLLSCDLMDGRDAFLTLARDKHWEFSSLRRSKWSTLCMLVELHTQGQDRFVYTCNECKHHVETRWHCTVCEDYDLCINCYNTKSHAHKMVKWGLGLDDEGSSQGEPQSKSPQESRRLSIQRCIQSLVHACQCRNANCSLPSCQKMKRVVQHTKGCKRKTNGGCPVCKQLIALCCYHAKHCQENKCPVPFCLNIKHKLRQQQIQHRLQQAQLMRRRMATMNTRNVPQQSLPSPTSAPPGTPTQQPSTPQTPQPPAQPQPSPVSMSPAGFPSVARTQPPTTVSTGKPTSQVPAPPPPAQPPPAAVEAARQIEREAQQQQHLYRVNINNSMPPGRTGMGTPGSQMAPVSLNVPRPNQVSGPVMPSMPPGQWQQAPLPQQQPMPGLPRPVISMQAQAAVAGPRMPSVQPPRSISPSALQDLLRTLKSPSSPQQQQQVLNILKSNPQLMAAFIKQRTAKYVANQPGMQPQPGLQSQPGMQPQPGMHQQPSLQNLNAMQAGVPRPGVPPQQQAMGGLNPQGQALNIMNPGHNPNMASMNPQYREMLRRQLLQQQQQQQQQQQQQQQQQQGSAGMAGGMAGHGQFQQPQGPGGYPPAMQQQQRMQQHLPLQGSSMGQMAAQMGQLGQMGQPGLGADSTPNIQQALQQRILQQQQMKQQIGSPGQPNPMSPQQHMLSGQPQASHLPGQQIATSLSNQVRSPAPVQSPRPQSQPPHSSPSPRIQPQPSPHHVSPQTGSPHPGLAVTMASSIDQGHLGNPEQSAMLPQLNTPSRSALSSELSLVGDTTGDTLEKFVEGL
UniProt P19838, residues 1-433: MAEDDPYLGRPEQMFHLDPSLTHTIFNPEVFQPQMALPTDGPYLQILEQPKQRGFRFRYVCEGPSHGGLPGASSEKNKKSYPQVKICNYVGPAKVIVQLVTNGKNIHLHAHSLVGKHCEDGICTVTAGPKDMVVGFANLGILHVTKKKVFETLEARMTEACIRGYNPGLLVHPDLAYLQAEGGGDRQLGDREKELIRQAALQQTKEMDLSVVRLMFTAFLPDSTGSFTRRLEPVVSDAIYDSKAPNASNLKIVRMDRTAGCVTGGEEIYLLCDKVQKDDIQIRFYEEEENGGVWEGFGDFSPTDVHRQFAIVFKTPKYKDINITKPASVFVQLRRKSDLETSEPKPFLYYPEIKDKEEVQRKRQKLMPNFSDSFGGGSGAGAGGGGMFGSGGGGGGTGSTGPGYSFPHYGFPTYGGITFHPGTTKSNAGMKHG

Substance: Flag-p50 (NF-κB p50) (from UniProt P19838 1-433)
- binding [1]: no binding

Substance: pACT-BMAL1 (from UniProt O00327 1-626)
- binding [2]: binds

Substance: endogenous p65 (from UniProt Q04206 1-551)
- binding [3]: binds

Substance: HA-BMAL1 (brain and muscle arnt-like 1) (from UniProt O00327 1-626)
- binding [4]: binds
- binding [5]: binds

Substance: FLAG-p65 (NF-κB p65) (from UniProt Q04206 1-551)
- binding [1]: binds

From PMC6636133
